Experimental data: patent US8617555B2, “Pharmaceutical compositions comprising activated-potentiated antibodies to human insulin receptor and endothelial nitric oxide (NO) synthase” (priority 2010, dated 2013)
At least one compound was matched to its structure with a doubt left.

System: rats with streptozotocin-induced diabetes mellitus
Assay: Fasting blood plasma glucose level in rats with streptozotocin-induced diabetes mellitus
Type: in vivo, Wistar rats
Conditions: STZ rats; day 21; not statistically significant
Description: In the study, 150 male Wistar were used (weight at beginning of study 250-300 g, age 3.5-4 months). 10 rats were intact. The rest were intravenously injected with streptozotocin at the dose of 50 mg/kg (experimental model of diabetes mellitus). […] Intact rats received distilled water in the same volume. On days 7, 14 and 21 of injection of preparations in rats, fasting blood plasma glucose level measured with enzymatic method (glucose oxidase method) with utilization of “glucose FKD” kits (Russia).

CN(CCOc1ccc(CC2SC(=O)NC2=O)cc1)c1ccccn1 (stereo not shown) [Rosiglitazone] was tested, and the “effect on blood plasma glucose level (in words)” value was “lowered glucose level”.
